Paper PMC12540995
These are yes or no findings as the source states them, for the method shown. In cells and extracts the contact can be indirect. Some entries that bind do so weakly or less than the wild type.

Protein sequences, listed by entry. Tags and fused reporters are not part of them.
UniProt P27694: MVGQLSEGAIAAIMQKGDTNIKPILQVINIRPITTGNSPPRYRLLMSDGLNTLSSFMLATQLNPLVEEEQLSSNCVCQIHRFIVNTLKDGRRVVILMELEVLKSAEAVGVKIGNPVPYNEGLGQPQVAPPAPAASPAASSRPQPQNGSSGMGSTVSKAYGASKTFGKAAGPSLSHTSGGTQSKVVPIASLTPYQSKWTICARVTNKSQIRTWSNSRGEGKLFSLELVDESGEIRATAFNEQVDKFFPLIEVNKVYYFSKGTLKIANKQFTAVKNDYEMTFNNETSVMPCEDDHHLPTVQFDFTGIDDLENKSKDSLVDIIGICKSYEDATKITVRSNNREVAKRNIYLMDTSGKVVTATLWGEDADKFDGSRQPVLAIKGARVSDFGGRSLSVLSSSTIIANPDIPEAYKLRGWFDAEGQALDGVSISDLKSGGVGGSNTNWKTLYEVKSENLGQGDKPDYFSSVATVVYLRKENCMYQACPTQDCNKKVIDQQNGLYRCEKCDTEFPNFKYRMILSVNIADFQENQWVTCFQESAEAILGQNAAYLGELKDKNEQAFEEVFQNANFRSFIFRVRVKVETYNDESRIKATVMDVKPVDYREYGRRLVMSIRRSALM
UniProt Q63HN8: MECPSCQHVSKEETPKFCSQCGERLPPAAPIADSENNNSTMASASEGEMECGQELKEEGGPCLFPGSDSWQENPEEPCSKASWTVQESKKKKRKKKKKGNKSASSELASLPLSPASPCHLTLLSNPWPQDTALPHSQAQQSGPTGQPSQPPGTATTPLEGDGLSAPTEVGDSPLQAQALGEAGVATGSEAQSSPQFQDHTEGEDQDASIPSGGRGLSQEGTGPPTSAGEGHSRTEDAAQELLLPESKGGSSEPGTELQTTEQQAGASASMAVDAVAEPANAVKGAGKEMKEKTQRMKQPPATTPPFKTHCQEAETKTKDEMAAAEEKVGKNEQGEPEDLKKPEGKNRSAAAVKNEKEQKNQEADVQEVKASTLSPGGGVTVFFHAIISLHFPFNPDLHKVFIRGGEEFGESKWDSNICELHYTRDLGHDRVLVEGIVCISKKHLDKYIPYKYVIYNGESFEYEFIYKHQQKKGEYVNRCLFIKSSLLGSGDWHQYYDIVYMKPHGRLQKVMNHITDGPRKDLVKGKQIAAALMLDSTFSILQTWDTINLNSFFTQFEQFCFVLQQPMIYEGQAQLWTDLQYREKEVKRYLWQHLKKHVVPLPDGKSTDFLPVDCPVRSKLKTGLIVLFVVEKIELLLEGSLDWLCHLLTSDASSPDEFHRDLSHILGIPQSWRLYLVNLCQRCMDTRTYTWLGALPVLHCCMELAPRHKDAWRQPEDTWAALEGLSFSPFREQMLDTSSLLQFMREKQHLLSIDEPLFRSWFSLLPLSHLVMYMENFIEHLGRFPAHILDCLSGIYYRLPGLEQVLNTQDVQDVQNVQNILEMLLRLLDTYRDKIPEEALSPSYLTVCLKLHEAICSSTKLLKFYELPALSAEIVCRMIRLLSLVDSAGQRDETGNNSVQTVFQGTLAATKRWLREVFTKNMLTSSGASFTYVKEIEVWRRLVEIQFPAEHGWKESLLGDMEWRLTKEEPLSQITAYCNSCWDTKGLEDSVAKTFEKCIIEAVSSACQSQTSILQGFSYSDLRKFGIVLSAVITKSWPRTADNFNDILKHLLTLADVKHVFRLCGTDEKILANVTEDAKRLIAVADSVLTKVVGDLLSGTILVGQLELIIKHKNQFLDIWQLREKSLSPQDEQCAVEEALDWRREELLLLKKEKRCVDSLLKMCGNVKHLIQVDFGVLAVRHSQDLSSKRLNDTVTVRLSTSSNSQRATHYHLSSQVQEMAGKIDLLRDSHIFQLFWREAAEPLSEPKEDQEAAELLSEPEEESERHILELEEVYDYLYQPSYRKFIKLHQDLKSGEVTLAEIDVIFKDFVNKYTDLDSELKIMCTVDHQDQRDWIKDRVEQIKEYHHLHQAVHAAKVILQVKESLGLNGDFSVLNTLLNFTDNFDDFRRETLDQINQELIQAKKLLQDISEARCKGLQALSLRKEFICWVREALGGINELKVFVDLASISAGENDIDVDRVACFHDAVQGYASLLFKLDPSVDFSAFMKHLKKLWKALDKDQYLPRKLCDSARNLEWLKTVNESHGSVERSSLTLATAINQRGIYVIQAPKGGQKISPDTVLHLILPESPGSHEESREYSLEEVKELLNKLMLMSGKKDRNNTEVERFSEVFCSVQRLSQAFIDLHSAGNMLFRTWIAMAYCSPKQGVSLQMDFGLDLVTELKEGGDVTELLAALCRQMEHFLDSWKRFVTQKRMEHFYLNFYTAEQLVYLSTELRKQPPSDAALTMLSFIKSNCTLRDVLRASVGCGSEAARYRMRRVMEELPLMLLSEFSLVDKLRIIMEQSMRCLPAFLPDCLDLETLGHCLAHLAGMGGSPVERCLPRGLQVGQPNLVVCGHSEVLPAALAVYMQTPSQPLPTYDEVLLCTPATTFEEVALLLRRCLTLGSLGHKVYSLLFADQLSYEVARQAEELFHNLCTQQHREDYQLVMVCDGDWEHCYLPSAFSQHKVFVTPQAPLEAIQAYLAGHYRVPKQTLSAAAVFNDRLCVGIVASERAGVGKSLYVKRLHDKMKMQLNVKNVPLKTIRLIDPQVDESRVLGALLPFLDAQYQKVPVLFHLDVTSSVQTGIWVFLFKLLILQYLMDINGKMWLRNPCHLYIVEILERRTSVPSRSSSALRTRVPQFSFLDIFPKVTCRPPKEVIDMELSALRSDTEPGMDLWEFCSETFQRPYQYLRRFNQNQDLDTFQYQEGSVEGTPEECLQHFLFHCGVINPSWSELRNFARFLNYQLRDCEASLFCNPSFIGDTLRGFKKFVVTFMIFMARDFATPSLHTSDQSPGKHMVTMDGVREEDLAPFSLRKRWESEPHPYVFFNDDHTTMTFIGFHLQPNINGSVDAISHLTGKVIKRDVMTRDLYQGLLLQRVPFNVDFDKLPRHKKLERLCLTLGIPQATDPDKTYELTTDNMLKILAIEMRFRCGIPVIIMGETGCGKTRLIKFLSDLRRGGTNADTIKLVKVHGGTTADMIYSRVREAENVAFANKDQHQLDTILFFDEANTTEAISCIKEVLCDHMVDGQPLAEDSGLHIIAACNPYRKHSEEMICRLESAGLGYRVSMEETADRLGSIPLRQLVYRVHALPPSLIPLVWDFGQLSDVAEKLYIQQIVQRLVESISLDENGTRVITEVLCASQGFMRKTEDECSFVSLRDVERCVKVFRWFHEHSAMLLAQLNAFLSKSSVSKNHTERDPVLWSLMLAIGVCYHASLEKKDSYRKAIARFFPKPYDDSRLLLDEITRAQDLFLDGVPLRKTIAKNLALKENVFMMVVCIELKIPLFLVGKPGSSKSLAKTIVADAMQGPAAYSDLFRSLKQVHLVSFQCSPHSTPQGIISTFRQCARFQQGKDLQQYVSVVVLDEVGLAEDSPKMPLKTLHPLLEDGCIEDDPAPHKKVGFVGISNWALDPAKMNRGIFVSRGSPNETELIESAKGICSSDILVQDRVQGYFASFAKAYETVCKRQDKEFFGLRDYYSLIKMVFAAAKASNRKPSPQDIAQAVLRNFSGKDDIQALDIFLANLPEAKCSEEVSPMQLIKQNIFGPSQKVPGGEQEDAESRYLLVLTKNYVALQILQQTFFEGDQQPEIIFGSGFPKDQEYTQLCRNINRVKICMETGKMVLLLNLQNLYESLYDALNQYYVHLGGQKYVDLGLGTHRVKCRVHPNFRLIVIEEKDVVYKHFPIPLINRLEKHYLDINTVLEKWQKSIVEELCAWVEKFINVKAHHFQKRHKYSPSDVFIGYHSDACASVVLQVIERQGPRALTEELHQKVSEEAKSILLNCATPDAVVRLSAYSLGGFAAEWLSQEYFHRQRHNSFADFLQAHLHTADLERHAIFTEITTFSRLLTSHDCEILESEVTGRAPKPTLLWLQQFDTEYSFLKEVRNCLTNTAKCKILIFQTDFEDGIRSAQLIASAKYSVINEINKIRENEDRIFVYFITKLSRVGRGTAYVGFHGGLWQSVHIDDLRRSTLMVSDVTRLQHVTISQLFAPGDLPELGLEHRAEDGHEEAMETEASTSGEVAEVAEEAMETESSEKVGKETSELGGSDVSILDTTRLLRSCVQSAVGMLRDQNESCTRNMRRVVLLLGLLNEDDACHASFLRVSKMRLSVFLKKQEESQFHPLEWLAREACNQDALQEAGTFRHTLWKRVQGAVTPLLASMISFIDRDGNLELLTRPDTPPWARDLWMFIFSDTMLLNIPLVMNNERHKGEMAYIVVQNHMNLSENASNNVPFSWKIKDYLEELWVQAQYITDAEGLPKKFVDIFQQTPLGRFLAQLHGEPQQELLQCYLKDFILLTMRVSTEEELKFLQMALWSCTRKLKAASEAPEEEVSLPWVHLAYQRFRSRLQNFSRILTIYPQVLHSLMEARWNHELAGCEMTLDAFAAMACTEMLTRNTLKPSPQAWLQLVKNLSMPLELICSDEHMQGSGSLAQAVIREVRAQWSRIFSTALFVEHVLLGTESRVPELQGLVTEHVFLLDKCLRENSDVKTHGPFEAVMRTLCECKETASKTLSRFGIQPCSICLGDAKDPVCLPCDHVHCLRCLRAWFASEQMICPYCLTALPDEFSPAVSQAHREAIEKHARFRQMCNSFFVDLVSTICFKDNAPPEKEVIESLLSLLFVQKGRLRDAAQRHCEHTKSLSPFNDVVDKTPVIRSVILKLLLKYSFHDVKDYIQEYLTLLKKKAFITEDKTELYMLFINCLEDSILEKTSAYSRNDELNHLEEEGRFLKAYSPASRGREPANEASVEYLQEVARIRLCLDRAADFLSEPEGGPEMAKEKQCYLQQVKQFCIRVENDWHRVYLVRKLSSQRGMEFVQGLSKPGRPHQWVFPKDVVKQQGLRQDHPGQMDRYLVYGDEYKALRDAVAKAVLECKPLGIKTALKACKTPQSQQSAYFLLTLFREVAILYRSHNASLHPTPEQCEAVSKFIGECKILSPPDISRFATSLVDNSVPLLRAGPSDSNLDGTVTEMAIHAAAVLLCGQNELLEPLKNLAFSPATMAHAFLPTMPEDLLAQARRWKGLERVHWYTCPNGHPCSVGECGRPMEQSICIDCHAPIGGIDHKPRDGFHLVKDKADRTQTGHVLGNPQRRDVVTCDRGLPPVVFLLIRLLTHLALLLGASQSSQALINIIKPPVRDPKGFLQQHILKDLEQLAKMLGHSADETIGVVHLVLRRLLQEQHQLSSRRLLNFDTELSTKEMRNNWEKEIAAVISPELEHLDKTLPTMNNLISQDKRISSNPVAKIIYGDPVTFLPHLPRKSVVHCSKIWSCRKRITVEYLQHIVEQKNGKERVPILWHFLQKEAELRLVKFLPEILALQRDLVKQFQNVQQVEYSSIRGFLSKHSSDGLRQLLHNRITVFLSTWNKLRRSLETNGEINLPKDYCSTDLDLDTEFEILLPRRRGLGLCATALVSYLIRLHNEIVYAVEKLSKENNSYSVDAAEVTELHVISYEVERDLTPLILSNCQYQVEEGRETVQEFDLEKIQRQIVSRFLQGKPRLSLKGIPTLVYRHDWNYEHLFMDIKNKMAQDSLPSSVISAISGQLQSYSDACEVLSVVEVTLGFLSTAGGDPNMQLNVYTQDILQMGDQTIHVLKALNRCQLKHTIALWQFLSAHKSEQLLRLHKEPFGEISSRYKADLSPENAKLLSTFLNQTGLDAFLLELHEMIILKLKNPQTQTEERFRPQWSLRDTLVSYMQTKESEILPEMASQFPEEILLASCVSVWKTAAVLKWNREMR

Columns and labels:
[1] = target: Replication protein A1 (RPA1) (human (endogenous in HEK293T)) (UniProt P27694); assay: co-IP; HEK293T cell lysates immunoprecipitated with control IgG, anti-RNF213 or anti-RPA1 antibodies; immunoprecipitates blotted; endogenous proteins
Flag-RPA1 = Flag-RPA1 (UniProt P27694); assay: co-IP; HEK293T cells transiently transfected with Flag-tagged constructs for 24 h; lysates incubated with anti-Flag agarose beads overnight at 4 °C; immunoprecipitates blotted
[2] = target: RNF213 (human (endogenous in HEK293T)) (UniProt Q63HN8); assay: co-IP; HEK293T cell lysates immunoprecipitated with control IgG, anti-RNF213 or anti-RPA1 antibodies; immunoprecipitates blotted; endogenous proteins
Flag-RNF213 = Flag-RNF213 (UniProt Q63HN8); assay: co-IP; HEK293T cells transiently transfected with Flag-tagged constructs for 24 h; lysates incubated with anti-Flag agarose beads overnight at 4 °C; immunoprecipitates blotted

binding [1] | binding (Flag-RPA1) | binding [2] | binding (Flag-RNF213) | Substance
binds | binds |  |  | RNF213 (from UniProt Q63HN8 1-5207)
 |  | binds | binds | Replication protein A1 (RPA1) (from UniProt P27694 1-616)
